{"source": "patent US10751301B2", "about": "“Methods for inhibiting conversion of choline to trimethylamine (TMA)” (The Procter & Gamble Company, priority 2017, dated 2020)", "system": "Proteus mirabilis 29906 (Pm) lysate", "assay": "Inhibition of formation of TMA from choline in Proteus mirabilis lysate (Example 2)", "assay_type": "biochemical", "conditions": "read-out: IC50, inhibits the conversion of choline to TMA, assay of Example 2", "note": "For at least one compound, name, drawing or mass did not settle the structure."}
{"smiles": "CC[S+](C)CCO.[I-]", "note": "(stereo not shown) [Methylethylthioethanol iodide]", "values": [{"measurement": "IC50", "value": 871, "unit": "nM"}]}
